In patent US20040209841A1, “Association compound of trehalose or maltitol with metal ion compound” (priority 2001, published 2004):

Tests used:
[1] = Suppressing effect on the formation of scum from boiling foods (Experiment 9); conditions: for Weight of scum: 30 g pork + 20 g spinach in 400 ml water, boiled one minute; for Weight of scum RW (%) (relative weight): no saccharide = 100
[2] = Suppressing effect on the formation of scum during the cooking of boiled foods (Experiment 10)
[3] = Scum formation and elution of minerals from boiled vegetables (Experiment 12), garland chrysanthemum
[4] = Scum formation and elution of minerals from boiled vegetables (Experiment 12), spinach
[5] = Elution of magnesium from boiling Japanese wheat noodles (Experiment 13); conditions: 5 g raw noodle, 40 ml 10% (w/w) trehalose, boiled two minutes
[6] = garland chrysanthemum, no saccharide = 100
[7] = garland chrysanthemum, scum + filtrate

OC[C@H]1O[C@H](O[C@H]2O[C@H](CO)[C@@H](O)[C@H](O)[C@H]2O)[C@H](O)[C@@H](O)[C@@H]1O [Trehalose, α,α-trehalose]
Ash in scum ([1]; saccharide 2% (w/w)): 0.009 g | Ca in scum ([1]; saccharide 2% (w/w)): 1.613 mg | Fat in scum ([1]; saccharide 2% (w/w)): 0.406 g | Mg in scum ([1]; saccharide 2% (w/w)): 0.810 mg | Protein in scum ([1]; saccharide 2% (w/w)): 0.076 g | Weight of scum ([1]; saccharide 2% (w/w)): 0.506 g | Weight of scum RW (%) (relative weight) ([1]; saccharide 2% (w/w)): 46% | Ash in scum ([1]; saccharide 10% (w/w)): 0.005 g | Ca in scum ([1]; saccharide 10% (w/w)): 1.593 mg | Fat in scum ([1]; saccharide 10% (w/w)): 0.244 g | Mg in scum ([1]; saccharide 10% (w/w)): 0.156 mg | Protein in scum ([1]; saccharide 10% (w/w)): 0.048 g | Weight of scum ([1]; saccharide 10% (w/w)): 0.315 g | Weight of scum RW (%) (relative weight) ([1]; saccharide 10% (w/w)): 29% | Calcium in scum ([2]; 10% (w/w) saccharide): 0.048 mg | Magnesium in scum ([2]; 10% (w/w) saccharide): 0.011 mg | Potassium in scum ([2]; 10% (w/w) saccharide): 0.017 mg | Sodium in scum ([2]; 10% (w/w) saccharide): 0.182 mg | Weight of scum ([2]; 30 g pork, 400 ml 10% (w/w) saccharide, boiled five minutes): 0.579 g | Calcium in scum (%) ([2]; no saccharide = 100): 41% | Magnesium in scum (%) ([2]; no saccharide = 100): 20% | Potassium in scum (%) ([2]; no saccharide = 100): 74% | Sodium in scum (%) ([2]; no saccharide = 100): 74% | Weight of scum (%) ([2]; no saccharide = 100): 26% | Calcium in filtrate ([3]; garland chrysanthemum): 11.928 mg | Calcium in scum ([3]; garland chrysanthemum): 0.156 µg | Magnesium in filtrate ([3]; garland chrysanthemum): 0.628 mg | Magnesium in scum ([3]; garland chrysanthemum): 0.034 µg | Potassium in filtrate ([3]; garland chrysanthemum): 0.615 mg | Potassium in scum ([3]; garland chrysanthemum): 0.300 µg | Sodium in filtrate ([3]; garland chrysanthemum): 3.314 mg | Sodium in scum ([3]; garland chrysanthemum): 0.074 µg | Weight of scum ([3]; garland chrysanthemum 20 g, 400 ml 10% (w/w) saccharide, boiled five minutes): 0.008 g | Calcium in filtrate (%) [3, 6]: 91% | Calcium in scum (%) [3, 6]: 38% | Calcium, total amount eluted (%) [3, 6]: 91% | Magnesium in filtrate (%) [3, 6]: 48% | Magnesium in scum (%) [3, 6]: 37% | Magnesium, total amount eluted (%) [3, 6]: 48% | Potassium in filtrate (%) [3, 6]: 87% | Potassium in scum (%) [3, 6]: 79% | Potassium, total amount eluted (%) [3, 6]: 87% | Sodium in filtrate (%) [3, 6]: 103% | Sodium in scum (%) [3, 6]: 37% | Sodium, total amount eluted (%) [3, 6]: 103% | Weight of scum (%) [3, 6]: 57% | Calcium, total amount of minerals eluted [3, 7]: 11.928 mg | Magnesium, total amount of minerals eluted [3, 7]: 0.628 mg | Potassium, total amount of minerals eluted [3, 7]: 0.615 mg | Sodium, total amount of minerals eluted [3, 7]: 3.314 mg | Calcium in filtrate ([4]; spinach): 3.850 mg | Calcium in scum ([4]; spinach): 0.553 µg | Magnesium in filtrate ([4]; spinach): 3.264 mg | Magnesium in scum ([4]; spinach): 0.501 µg | Potassium in filtrate ([4]; spinach): 0.752 mg | Potassium in scum ([4]; spinach): 0.804 µg | Sodium in filtrate ([4]; spinach): 1.879 mg | Sodium in scum ([4]; spinach): 0.727 µg | Weight of scum ([4]; spinach 20 g, 400 ml 10% (w/w) saccharide, boiled five minutes): 0.022 g | Calcium in filtrate (%) ([4]; spinach, no saccharide = 100): 87% | Calcium in scum (%) ([4]; spinach, no saccharide = 100): 48% | Calcium, total amount eluted (%) ([4]; spinach, no saccharide = 100): 87% | Magnesium in filtrate (%) ([4]; spinach, no saccharide = 100): 47% | Magnesium in scum (%) ([4]; spinach, no saccharide = 100): 61% | Magnesium, total amount eluted (%) ([4]; spinach, no saccharide = 100): 47% | Potassium in filtrate (%) ([4]; spinach, no saccharide = 100): 97% | Potassium in scum (%) ([4]; spinach, no saccharide = 100): 67% | Potassium, total amount eluted (%) ([4]; spinach, no saccharide = 100): 97% | Sodium in filtrate (%) ([4]; spinach, no saccharide = 100): 96% | Sodium in scum (%) ([4]; spinach, no saccharide = 100): 88% | Sodium, total amount eluted (%) ([4]; spinach, no saccharide = 100): 96% | Weight of scum (%) ([4]; spinach, no saccharide = 100): 65% | Calcium, total amount of minerals eluted ([4]; spinach, scum + filtrate): 3.851 mg | Magnesium, total amount of minerals eluted ([4]; spinach, scum + filtrate): 3.265 mg | Potassium, total amount of minerals eluted ([4]; spinach, scum + filtrate): 0.753 mg | Sodium, total amount of minerals eluted ([4]; spinach, scum + filtrate): 1.879 mg | Magnesium in filtrate [5]: 51.9 µg
